# Where “and” joins values, the source holds several entries; their conditions need not be identical. Identical values can stand only once.
# Test system: amyloid in transgenic islets cells expressing human IAPP
# Assay: Electron micrograph analysis of amyloid in cultured transgenic islets
# Type: cell-based, mouse
# Text: These are used as a test system for determining the toxicity and effect of putative amyloid inhibitors in short term culture systems. Whereas normal mice can be used to determine toxicity of compounds added to the media, amyloid fibrils form only in murine islets isolated from transgenic mice expressing the gene for human IAPP (transgene incorporation was confirmed by PCR). These islets are isolated in a similar way to that of human islets and are handpicked from the digest and cultured in 16.7 mM glucose as above. Amyloid fibrils formed within 4 days of culture and can be quantified by quantitative electron microscopy. […] The cells were cultured for 6 days in 11.1 mM glucose and RPMI.
# Transgenic islets cells were cultured as described above, for 7 days and the media changed every two days. At the end of the culture period the islets were fixed in 2.5% glutaraldehyde in 0.1M sodium phosphate buffer (pH 7.2) for one hour and post-fixed in 1% osmium tetroxide, and embedded in Spurr's resin (Taab Laboratories, Reading, UK) or contrast enhanced in 2% Uranyl Acetate, dehydrated in methanol and embedded in LRGold (Taab, as previous). […]
# Images of 3 islet sections at a low magnification were prepared. […] The total islet area, together with the area of intra and extra cellular amyloid was then calculated using image analysis (Kontron Image Processor). […]
smiles,measurement,setting,value
"COc1ccc(S(=O)(=O)O)c2cccnc12 [vii, 8-methoxyquinoline-5-sulfonic acid]",Total islet area,"Average of 3 islets, 7 days culture",5407.21 μm^2
same,Total islet area,"individual islets 1-3, 7 days culture",5744.23 μm^2 and 7360.63 μm^2 and 3616.76 μm^2

# Reference: patent US20070015737A1, “Compounds for inhibiting diseases and preparing cells for transplantation” (Neurochem (International) Limited, priority 1999, published 2007)
